Reference: patent US10034476B2, “Insecticidal phenyl-or pyridyl-piperdine compounds” (Syngenta Participations AG, priority 2008, dated 2018)
Some results were stated once for a whole list of compounds, not compound by compound.

Legend:
Assay type in all cases: in vivo
Spodoptera littoralis = Spodoptera littoralis (Egyptian cotton leafworm) cotton leaf disc spray test; settings: 200 ppm spray on cotton leaf discs, L1 larvae, 3 DAT; mortality, feeding behavior, growth regulation
Excerpt: Spodoptera littoralis (Egyptian Cotton Leafworm) Cotton leaf discs were placed on agar in a 24-well microtiter plate and sprayed with test solutions at an application rate of 200 ppm. After drying, the leaf discs were infested with 5 L1 larvae. The samples were checked for mortality, feeding behavior, and growth regulation 3 days after treatment (DAT).

Heliothis virescens = Heliothis virescens (tobacco budworm) egg/artificial diet test; settings: 200 ppm (concentration in well 18 ppm), eggs 0-24 h old on artificial diet, 4 days; egg mortality, larval mortality, growth regulation
Description: Heliothis virescens (Tobacco Budworm): Eggs (0-24 h old) were placed in 24-well microtiter plate on artificial diet and treated with test solutions at an application rate of 200 ppm (concentration in well 18 ppm) by pipetting. After an incubation period of 4 days, samples were checked for egg mortality, larval mortality, and growth regulation.

Diabrotica balteata = Diabrotica balteata (corn root worm) artificial diet test; settings: 200 ppm (concentration in well 18 ppm), L2 larvae, 5 days, larval mortality, growth regulation
Description: Diabrotica Balteata (Corn Root Worm): A 24-well microtiter plate (MTP) with artificial diet was treated with test solutions at an application rate of 200 ppm (concentration in well 18 ppm) by pipetting. After drying, the MTP's were infested with larvae (L2) (6-10 per well). After an incubation period of 5 days, samples were checked for larval mortality, and growth regulation.

Plutella xylostella = Plutella xylostella (diamond back moth) artificial diet test; settings: 200 ppm (concentration in well 18 ppm), L2 larvae, 6 days, larval mortality, growth regulation
Description: Plutella xylostella (Diamond Back Moth): 24-well microtiter plate (MTP) with artificial diet was treated with test solutions at an application rate of 200 ppm (concentration in well 18 ppm) by pipetting. After drying, the MTP's were infested with L2 larvae (7-12 per well). After an incubation period of 6 days, samples were checked for larval mortality and growth regulation.

O=C(Nc1ccc(C(F)(F)F)c(F)c1C1CC[N+]([O-])(Cc2ccc(-c3ccc(F)cc3)cc2)CC1)c1ccnc(Cl)c1 (stereo not shown) [Compound G6]
at least 80%: control of Spodoptera littoralis (Spodoptera littoralis) | control of Heliothis virescens (Heliothis virescens) | control of Diabrotica balteata (Diabrotica balteata) | control of Plutella xylostella (Plutella xylostella)

O=C(Nc1cc(Cl)c(Cl)cc1C1CC[N+]([O-])(Cc2ccc(-c3ccc(F)cc3)cc2)CC1)c1ccnc(Cl)c1 (stereo not shown) [Compound B27]
at least 80%: control of Spodoptera littoralis (Spodoptera littoralis) | control of Heliothis virescens (Heliothis virescens) | control of Diabrotica balteata (Diabrotica balteata) | control of Plutella xylostella (Plutella xylostella)

O=C(Nc1cc(F)c(C(F)(F)F)cc1C1CC[N+]([O-])(Cc2ccc(-c3ccc(F)cc3)cc2)CC1)c1ccnc(Cl)c1 (stereo not shown) [Compound B18]
at least 80%: control of Spodoptera littoralis (Spodoptera littoralis) | control of Heliothis virescens (Heliothis virescens) | control of Diabrotica balteata (Diabrotica balteata) | control of Plutella xylostella (Plutella xylostella)

O=C(Nc1ccc(C(F)(F)F)cc1C1CCN(Cc2ccc(-c3ccc(F)cc3)cc2)CC1)c1cc(Cl)ncc1F [Compound A42]
at least 80%: control of Spodoptera littoralis (Spodoptera littoralis) | control of Heliothis virescens (Heliothis virescens) | control of Diabrotica balteata (Diabrotica balteata) | control of Plutella xylostella (Plutella xylostella)

O=C(Nc1ccc(C(F)(F)F)cc1C1CC[N+](O)(Cc2ccc(-c3ccc(F)cc3)cc2)CC1)c1ccnc(Cl)c1.O=P([O-])(O)O (stereo not shown) [Compound J2]
at least 80%: control of Spodoptera littoralis (Spodoptera littoralis) | control of Heliothis virescens (Heliothis virescens) | control of Diabrotica balteata (Diabrotica balteata) | control of Plutella xylostella (Plutella xylostella)

O=C(Nc1cc(C(F)(F)F)c(Cl)cc1C1CCN(Cc2ccc(-c3ccc(F)cc3)cc2)CC1)c1ccnc(Cl)c1 [Compound A17]
at least 80%: control of Spodoptera littoralis (Spodoptera littoralis) | control of Heliothis virescens (Heliothis virescens) | control of Diabrotica balteata (Diabrotica balteata) | control of Plutella xylostella (Plutella xylostella)

O=C(Nc1ccc(C(F)(F)F)nc1C1CC[N+]([O-])(Cc2ccc(-c3ccc(F)cc3)cc2)CC1)c1cc(Cl)ncc1F (stereo not shown) [Compound D25]
at least 80%: control of Spodoptera littoralis (Spodoptera littoralis) | control of Heliothis virescens (Heliothis virescens) | control of Diabrotica balteata (Diabrotica balteata) | control of Plutella xylostella (Plutella xylostella)

C=Cc1cc(C2CCN(Cc3ccc(-c4ccc(F)cc4)cc3)CC2)c(NC(=O)c2ccnc(Cl)c2)cc1F [Compound A24]
at least 80%: control of Spodoptera littoralis (Spodoptera littoralis) | control of Heliothis virescens (Heliothis virescens) | control of Diabrotica balteata (Diabrotica balteata) | control of Plutella xylostella (Plutella xylostella)

CCS(=O)(=O)[O-].O=C(Nc1ccc(C(F)(F)F)nc1C1CC[N+](O)(Cc2ccc(-c3ccc(F)cc3)cc2)CC1)c1ccnc(Cl)c1 (stereo not shown) [Compound K3]
at least 80%: control of Spodoptera littoralis (Spodoptera littoralis) | control of Heliothis virescens (Heliothis virescens) | control of Diabrotica balteata (Diabrotica balteata) | control of Plutella xylostella (Plutella xylostella)

O=C(Nc1cc(C(F)(F)F)c(F)cc1C1CCN(Cc2ccc(-c3ccc(F)cc3)cc2)CC1)c1ccnc(Cl)c1 [Compound A19]
at least 80%: control of Spodoptera littoralis (Spodoptera littoralis) | control of Heliothis virescens (Heliothis virescens) | control of Diabrotica balteata (Diabrotica balteata) | control of Plutella xylostella (Plutella xylostella)

O=C(Nc1cc(F)c(Br)cc1C1CC[N+]([O-])(Cc2ccc(-c3ccc(F)cc3)cc2)CC1)c1cc(Cl)nc(Cl)c1 (stereo not shown) [Compound B22]
at least 80%: control of Spodoptera littoralis (Spodoptera littoralis) | control of Heliothis virescens (Heliothis virescens) | control of Diabrotica balteata (Diabrotica balteata) | control of Plutella xylostella (Plutella xylostella)

N#Cc1ccc(NC(=O)c2ccnc(Cl)c2)c(C2CCN(Cc3ccc(-c4ccc(F)cc4)cc3)CC2)c1F [Compound E6]
at least 80%: control of Spodoptera littoralis (Spodoptera littoralis) | control of Heliothis virescens (Heliothis virescens) | control of Diabrotica balteata (Diabrotica balteata) | control of Plutella xylostella (Plutella xylostella)

O=C(Nc1cc(C(F)(F)F)c(F)cc1C1CC[N+]([O-])(Cc2ccc(-c3ccc(F)cc3)cc2)CC1)c1ccnc(Cl)c1 (stereo not shown) [Compound B17]
at least 80%: control of Spodoptera littoralis (Spodoptera littoralis) | control of Heliothis virescens (Heliothis virescens) | control of Diabrotica balteata (Diabrotica balteata) | control of Plutella xylostella (Plutella xylostella)

O=C(Nc1ccc(C(F)(F)F)cc1C1CC[N+](O)(Cc2ccc(-c3ccc(F)cc3)cc2)CC1)c1ccnc(Cl)c1.[Cl-] (stereo not shown) [Compound J4]
at least 80%: control of Spodoptera littoralis (Spodoptera littoralis) | control of Heliothis virescens (Heliothis virescens) | control of Diabrotica balteata (Diabrotica balteata) | control of Plutella xylostella (Plutella xylostella)

O=C(Nc1ccc(OC(F)F)cc1C1CC[N+]([O-])(Cc2ccc(-c3ccc(F)cc3)cc2)CC1)c1ccnc(Cl)c1 (stereo not shown) [Compound B7]
at least 80%: control of Spodoptera littoralis (Spodoptera littoralis) | control of Heliothis virescens (Heliothis virescens) | control of Diabrotica balteata (Diabrotica balteata) | control of Plutella xylostella (Plutella xylostella)

O=C(Nc1cc(Cl)c(C(F)(F)F)cc1C1CCN(Cc2ccc(-c3ccc(F)cc3)cc2)CC1)c1ccnc(Cl)c1 [Compound A37]
at least 80%: control of Spodoptera littoralis (Spodoptera littoralis) | control of Heliothis virescens (Heliothis virescens) | control of Diabrotica balteata (Diabrotica balteata) | control of Plutella xylostella (Plutella xylostella)

O=C(Nc1cc(C(F)(F)F)c(Br)cc1C1CCN(Cc2ccc(-c3ccc(F)cc3)cc2)CC1)c1ccnc(Cl)c1 [Compound A12]
at least 80%: control of Spodoptera littoralis (Spodoptera littoralis) | control of Heliothis virescens (Heliothis virescens) | control of Diabrotica balteata (Diabrotica balteata) | control of Plutella xylostella (Plutella xylostella)

O=C(Nc1cc(C(F)(F)F)c(F)nc1C1CC[N+]([O-])(Cc2ccc(-c3ccc(F)cc3)cc2)CC1)c1ccnc(Cl)c1 (stereo not shown) [Compound D19]
at least 80%: control of Spodoptera littoralis (Spodoptera littoralis) | control of Heliothis virescens (Heliothis virescens) | control of Diabrotica balteata (Diabrotica balteata) | control of Plutella xylostella (Plutella xylostella)

O=C(Nc1cc(F)c(Br)nc1C1CC[N+]([O-])(Cc2ccc(-c3ccc(F)cc3)cc2)CC1)c1ccnc(Cl)c1 (stereo not shown) [Compound D7]
at least 80%: control of Spodoptera littoralis (Spodoptera littoralis) | control of Heliothis virescens (Heliothis virescens) | control of Diabrotica balteata (Diabrotica balteata) | control of Plutella xylostella (Plutella xylostella)

O=C(Nc1ccc(C(F)(F)F)nc1C1CCN(Cc2ccc(-c3ccc(F)cc3)cc2)CC1)c1cc(Cl)ncc1F [Compound C39]
at least 80%: control of Spodoptera littoralis (Spodoptera littoralis) | control of Heliothis virescens (Heliothis virescens) | control of Diabrotica balteata (Diabrotica balteata) | control of Plutella xylostella (Plutella xylostella)

O=C(Nc1cc(Cl)c(OCC(F)(F)F)nc1C1CC[N+]([O-])(Cc2ccc(-c3ccc(F)cc3)cc2)CC1)c1ccnc(Cl)c1 (stereo not shown) [Compound D5]
at least 80%: control of Spodoptera littoralis (Spodoptera littoralis) | control of Heliothis virescens (Heliothis virescens) | control of Diabrotica balteata (Diabrotica balteata) | control of Plutella xylostella (Plutella xylostella)

Cc1cc(C(=O)Nc2cc(Cl)c(Cl)nc2C2CC[N+]([O-])(Cc3ccc(-c4ccc(F)cc4)cc3)CC2)cc(Cl)n1 (stereo not shown) [Compound D11]
at least 80%: control of Spodoptera littoralis (Spodoptera littoralis) | control of Heliothis virescens (Heliothis virescens) | control of Diabrotica balteata (Diabrotica balteata) | control of Plutella xylostella (Plutella xylostella)

O=C(Nc1cc(F)c(Br)cc1C1CC[N+]([O-])(Cc2ccc(-c3ccc(F)cc3)cc2)CC1)c1ccnc(Cl)c1 (stereo not shown) [Compound B11]
at least 80%: control of Spodoptera littoralis (Spodoptera littoralis) | control of Heliothis virescens (Heliothis virescens) | control of Diabrotica balteata (Diabrotica balteata) | control of Plutella xylostella (Plutella xylostella)

O=C(Nc1cc(Cl)c(F)cc1C1CC[N+]([O-])(Cc2ccc(-c3ccc(F)cc3)cc2)CC1)c1ccnc(Cl)c1 (stereo not shown) [Compound B24]
at least 80%: control of Spodoptera littoralis (Spodoptera littoralis) | control of Heliothis virescens (Heliothis virescens) | control of Diabrotica balteata (Diabrotica balteata) | control of Plutella xylostella (Plutella xylostella)

CS(=O)(=O)[O-].O=C(Nc1ccc(C(F)(F)F)nc1C1CC[N+](O)(Cc2ccc(-c3ccc(F)cc3)cc2)CC1)c1ccnc(Cl)c1 (stereo not shown) [Compound K2]
at least 80%: control of Spodoptera littoralis (Spodoptera littoralis) | control of Heliothis virescens (Heliothis virescens) | control of Diabrotica balteata (Diabrotica balteata) | control of Plutella xylostella (Plutella xylostella)

O=C(Nc1cc(Cl)c(Cl)nc1C1CCN(Cc2ccc(-c3ccc(F)cc3)cc2)CC1)c1cc(Cl)ncc1Cl [Compound C37]
at least 80%: control of Spodoptera littoralis (Spodoptera littoralis) | control of Heliothis virescens (Heliothis virescens) | control of Diabrotica balteata (Diabrotica balteata) | control of Plutella xylostella (Plutella xylostella)

O=C(Nc1ccc(C(F)(F)F)cc1C1CC[N+]([O-])(Cc2ccc(-c3ccc(F)cc3)cc2)CC1)c1ccnc(Cl)c1 (stereo not shown) [Compound B6]
at least 80%: control of Spodoptera littoralis (Spodoptera littoralis) | control of Heliothis virescens (Heliothis virescens) | control of Diabrotica balteata (Diabrotica balteata) | control of Plutella xylostella (Plutella xylostella)

O=C(Nc1ccc(F)cc1C1CCN(Cc2ccc(-c3ccc(F)cc3)cc2)CC1)c1ccnc(Cl)c1 [Compound A5]
at least 80%: control of Spodoptera littoralis (Spodoptera littoralis) | control of Heliothis virescens (Heliothis virescens) | control of Diabrotica balteata (Diabrotica balteata) | control of Plutella xylostella (Plutella xylostella)
